According to PMC9332868:
Results are given in words; binding and its absence hold for the method and conditions named. Binding seen in cells or lysates may run through a third protein. Some results given as binding are weak or reduced against the parent protein; the word gives no strength.

Amino acid sequences for entries named in this document (tags omitted).
UniProt P27361: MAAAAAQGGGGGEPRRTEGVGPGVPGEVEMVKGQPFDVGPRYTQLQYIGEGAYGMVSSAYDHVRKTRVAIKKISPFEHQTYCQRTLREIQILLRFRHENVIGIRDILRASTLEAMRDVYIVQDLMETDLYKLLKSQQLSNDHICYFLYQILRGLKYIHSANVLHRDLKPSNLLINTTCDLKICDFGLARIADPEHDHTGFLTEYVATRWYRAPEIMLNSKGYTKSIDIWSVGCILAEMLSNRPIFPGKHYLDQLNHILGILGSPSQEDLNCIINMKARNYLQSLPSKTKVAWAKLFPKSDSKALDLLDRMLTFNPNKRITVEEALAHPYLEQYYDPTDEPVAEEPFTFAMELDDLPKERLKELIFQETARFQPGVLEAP

Biological target: MEK2 (human (endogenous in HGC27 and AGS)) (UniProt P36507)
Experiment: co-IP; MEK1 or MEK2 immunoprecipitated from HGC27 and AGS cells, with or without tegaserod maleate treatment; ERK1/2 in the precipitate detected by Western blotting with anti-p-ERK1/2 T202/Y204

## ERK1 (from UniProt P27361 1-379)
  binding: binds
